# Measurements reported in publication PMC8384837.
# Changes are numbered by the printed parent chain. Some of the results follow. At the low end of the ranking the order means little.
# Assays:
# Conditions in all cases: yeast three-hybrid, YBZ-1, SC-Leu-His + 0.5 mM 3-AT, 4 days
# [1] = target: T1, PUM1 PUF domain R5-DKR C1007D + R1008K + Q1011R (UniProt Q14671)
# T1 sequence: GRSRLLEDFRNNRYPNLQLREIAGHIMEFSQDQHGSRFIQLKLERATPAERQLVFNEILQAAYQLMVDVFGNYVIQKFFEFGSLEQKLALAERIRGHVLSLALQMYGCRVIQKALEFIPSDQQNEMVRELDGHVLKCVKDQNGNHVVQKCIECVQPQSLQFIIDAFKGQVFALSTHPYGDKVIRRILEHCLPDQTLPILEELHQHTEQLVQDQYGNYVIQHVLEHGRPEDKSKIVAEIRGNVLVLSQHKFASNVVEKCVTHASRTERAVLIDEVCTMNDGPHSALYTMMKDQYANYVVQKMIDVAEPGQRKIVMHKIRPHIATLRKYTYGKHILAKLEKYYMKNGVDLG
# [2] = target: T2, PUM1 PUF domain R5-DRD C1007D + Q1011D (UniProt Q14671)
# T2 sequence: T1 sequence with K181R, R184D
# [3] = target: T3, PUM1 PUF domain R5-FNG C1007F + R1008N + Q1011G (UniProt Q14671)
# T3 sequence: T1 sequence with D180F, K181N, R184G
# [4] = target: T4, PUM1 PUF domain R5-GVD C1007G + R1008V + Q1011D (UniProt Q14671)
# T4 sequence: T1 sequence with D180G, K181V, R184D
# [5] = target: T5, PUM1 PUF domain R5-KAV C1007K + R1008A + Q1011V (UniProt Q14671)
# T5 sequence: T1 sequence with D180K, K181A, R184V
# [6] = target: T6, PUM1 PUF domain R5-KLC C1007K + R1008L + Q1011C (UniProt Q14671)
# T6 sequence: T1 sequence with D180K, K181L, R184C
# [7] = target: T7, PUM1 PUF domain R5-KPI C1007K + R1008P + Q1011I (UniProt Q14671)
# T7 sequence: T1 sequence with D180K, K181P, R184I
# [8] = target: T8, PUM1 PUF domain R5-KSW C1007K + R1008S + Q1011W (UniProt Q14671)
# T8 sequence: T1 sequence with D180K, K181S, R184W
# [9] = target: T9, PUM1 PUF domain R5-LKL C1007L + R1008K + Q1011L (UniProt Q14671)
# T9 sequence: T1 sequence with D180L, R184L
# [10] = target: T10, PUM1 PUF domain R5-NDI C1007N + R1008D + Q1011I (UniProt Q14671)
# T10 sequence: T1 sequence with D180N, K181D, R184I
# [11] = target: T11, PUM1 PUF domain R5-NTR C1007N + R1008T + Q1011R (UniProt Q14671)
# T11 sequence: T1 sequence with D180N, K181T
# [12] = target: T12, PUM1 PUF domain R5-RAA C1007R + R1008A + Q1011A (UniProt Q14671)
# T12 sequence: T1 sequence with D180R, K181A, R184A
# [13] = target: T13, PUM1 PUF domain R5-RAD C1007R + R1008A + Q1011D (UniProt Q14671)
# T13 sequence: T1 sequence with D180R, K181A, R184D
# [14] = target: T14, PUM1 PUF domain R5-RCV C1007R + R1008C + Q1011V (UniProt Q14671)
# T14 sequence: T1 sequence with D180R, K181C, R184V
# [15] = target: T15, PUM1 PUF domain R5-RDG C1007R + R1008D + Q1011G (UniProt Q14671)
# T15 sequence: T1 sequence with D180R, K181D, R184G
# [16] = target: T16, PUM1 PUF domain R5-RGA C1007R + R1008G + Q1011A (UniProt Q14671)
# T16 sequence: T1 sequence with D180R, K181G, R184A
# [17] = target: T17, PUM1 PUF domain R5-RMV C1007R + R1008M + Q1011V (UniProt Q14671)
# T17 sequence: T1 sequence with D180R, K181M, R184V
# [18] = target: T18, PUM1 PUF domain R5-RPM C1007R + R1008P + Q1011M (UniProt Q14671)
# T18 sequence: T1 sequence with D180R, K181P, R184M
# [19] = target: T19, PUM1 PUF domain R5-RTL C1007R + R1008T + Q1011L (UniProt Q14671)
# T19 sequence: T1 sequence with D180R, K181T, R184L
# [20] = target: T20, PUM1 PUF domain R5-SGT C1007S + R1008G + Q1011T (UniProt Q14671)
# T20 sequence: T1 sequence with D180S, K181G, R184T
sequence,measurement,setting,value
GGCUAGAACUAGUGGAUCCCCCGGCGCCCGGCGGCUCGAGCCCGGGUAAGUGUAAAUAGUCUGCAUGCCGCCGGGCGCCAUGCCUGCAGGUCGACUCUAGAAAACAUG,binding signal (log2 enrichment (interaction score)),[1],-4.45
same,binding signal (log2 enrichment (interaction score)),[2],-3.33
same,binding signal (log2 enrichment (interaction score)),[3],-4.52
same,binding signal (log2 enrichment (interaction score)),[4],-3.33
same,binding signal (log2 enrichment (interaction score)),[5],< -6.62
same,binding signal (log2 enrichment (interaction score)),[6],-3.47
same,binding signal (log2 enrichment (interaction score)),[7],-3.94
same,binding signal (log2 enrichment (interaction score)),[8],-4.41
same,binding signal (log2 enrichment (interaction score)),[9],-3.56
same,binding signal (log2 enrichment (interaction score)),[10],< -5.57
same,binding signal (log2 enrichment (interaction score)),[11],-4.16
same,binding signal (log2 enrichment (interaction score)),[12],-3.55
same,binding signal (log2 enrichment (interaction score)),[13],-3.62
same,binding signal (log2 enrichment (interaction score)),[14],-4.38
same,binding signal (log2 enrichment (interaction score)),[15],-7.06
same,binding signal (log2 enrichment (interaction score)),[16],-3.63
same,binding signal (log2 enrichment (interaction score)),[17],-4.27
same,binding signal (log2 enrichment (interaction score)),[18],< -7.18
same,binding signal (log2 enrichment (interaction score)),[19],-4.46
same,binding signal (log2 enrichment (interaction score)),[20],-3.41

# 2 records picked at random from the list so far, as already listed:
sequence,measurement,setting,value
GGCUAGAACUAGUGGAUCCCCCGGCGCCCGGCGGCUCGAGCCCGGGUAAGUGUAAAUAGUCUGCAUGCCGCCGGGCGCCAUGCCUGCAGGUCGACUCUAGAAAACAUG,binding signal (log2 enrichment (interaction score)),[12],-3.55
same,binding signal (log2 enrichment (interaction score)),[16],-3.63
